Assay results published in article PMC7482822.
Results are given in words; binding and its absence hold for the method and conditions named. Binding seen in cells or lysates may run through a third protein. Some binding calls cover weakened binding; strength is not graded here.

Tests used:
[1] = target: T1, ASC, adaptor of the NLRP3 inflammasome (mouse (endogenous in mpkCCD)) (UniProt Q9EPB4); assay: co-IP; IP with anti-ASC antibody (sc-514414, 1:10) in IP buffer overnight at 4 °C, protein A-sepharose beads for 12 h, Western blot; lysates of mpkCCD cells treated with cholesterol, with or without simvastatin
T1 sequence: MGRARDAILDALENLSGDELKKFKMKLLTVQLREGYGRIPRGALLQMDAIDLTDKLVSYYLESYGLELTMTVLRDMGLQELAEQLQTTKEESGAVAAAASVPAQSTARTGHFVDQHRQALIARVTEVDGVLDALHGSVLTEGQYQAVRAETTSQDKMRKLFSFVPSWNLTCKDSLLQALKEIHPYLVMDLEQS

[2] = target: T1, ASC, adaptor of the NLRP3 inflammasome (mouse (endogenous in mpkCCD)); assay: co-IP; as a1 (anti-ASC IP, protein A-sepharose, Western blot); mpkCCD cells treated with cholesterol and simvastatin

B1: Caspase-1 (enzyme, UniProt P29452 1-402)
chain: MADKILRAKRKQFINSVSIGTINGLLDELLEKRVLNQEEMDKIKLANITAMDKARDLCDHVSKKGPQASQIFITYICNEDCYLAGILELQSAPSAETFVATEDSKGGHPSSSETKEEQNKEDGTFPGLTGTLKFCPLEKAQKLWKENPSEIYPIMNTTTRTRLALIICNTEFQHLSPRVGAQVDLREMKLLLEDLGYTVKVKENLTALEMVKEVKEFAACPEHKTSDSTFLVFMSHGIQEGICGTTYSNEVSDILKVDTIFQMMNTLKCPSLKDKPKVIIIQACRGEKQGVVLLKDSVRDSEEDFLTDAIFEDDGIKKAHIEKDFIAFCSSTPDNVSWRHPVRGSLFIESLIKHMKEYAWSCDLEDIFRKVRFSFEQPEFRLQMPTADRVTLTKRFYLFPGH
For B1, the binding [1] was “binds” and the binding [2] was “binds weakly”.
